Usually AC50 stands for the midpoint of the concentration-response curve, whichever way the signal moves.

The results in this text go back to PubChem BioAssay AID2685 (National Center for Advancing Translational Sciences (NCATS), 2010).

The assay in a line: qHTS Assay for Lipid Storage Modulators in Drosophila S3 Cells.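 For cell number change: cells counted by Cell Tracker Red CMTPX staining in the red channel.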 The note with it: BODIPY lipid droplet fluorescence, 18-24 h; for cell number change: measured here: cell count max response, cells fed with added oleic acid. The method, boiled down:
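Drosophila S3 cells loaded with oleic acid (400 uM, as added) and compounds at several concentrations; lipid droplets imaged by 488-nm laser-scanning cytometry, 500–530 nm intensity and object ratio to cell channel. Percent activity normalized to 20 uM Triacsin C.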
Background: Quantitative high-throughput screening tests each substance at several concentrations.

Where [1] appears, read: measured here: lipid fluorescence (Fed channel) AC50, cells fed with added oleic acid.
Where [2] appears, read: measured here: cell number channel AC50, cells fed with added oleic acid.

The list shows a part of the results. Further columns of the screen follow, without active or inactive calls. Most of these compounds were active or inconclusive in the main read-out, so they are no random draw. The note in brackets gives the kind of curve behind each potency; many fits are weak.

`CC(=O)Nc1ccccc1S(=O)(=O)CC1CC1(Cl)Cl` (stereo not given): the cell number change is 13.5%. Also, the AC50 under setting [1] is 29.1 µM [rising, single point].
For the compound `O=C(N/N=C/c1cccc([N+](=O)[O-])c1)c1cccc2cc[nH]c12`, the cell number change was determined as 32.4%. Moreover, the AC50 under setting [2] is 1.3 µM [rising, full curve, poor fit]. The concentration at half-maximal activity (AC50) under setting [1] was 0.82 µM [rising, full curve].
As to `O=C(Oc1ccc2ccc(=O)oc2c1)c1ccc([N+](=O)[O-])cc1`, the cell number change is -8.56%. In addition, the concentration at half-maximal activity (AC50) under setting [1] was 0.731 µM [rising, full curve].
On to `CC1(C)Cc2c(sc3nc(SCC(=O)O)nc(N)c23)CO1`, for which the cell number change turned out to be 33.4%. Also, under setting [2], the concentration at half-maximal activity (AC50) is 0.82 µM [rising, full curve, poor fit]. Further, the AC50 under setting [1] is 29.1 µM [rising, partial curve].
Regarding `Cc1ccc(-n2ncc3c(NCc4ccccn4)ncnc32)c(C)c1`, the cell number change is -35.3%. In addition, the AC50 under setting [2] was 29.1 µM [falling, single point]. Also, the AC50 under setting [1] is 32.6 µM [falling, single point].
In the case of `COc1ccc(CCNc2c(N)n(Cc3ccccc3)c(=O)[nH]c2=O)cc1OC`, the cell number change was found to be 15.1%. Moreover, the half-maximal activity concentration (AC50) under setting [2] was 2.91 µM [rising, single point]. Besides, the half-maximal activity concentration (AC50) under setting [1] was 5.8 µM [rising, single point].
For the compound `O=C(c1ccccc1)c1cc(F)c(N2CCOCC2)cc1Cl`, the cell number change came out at 49.8%. Under setting [2], the concentration at half-maximal activity (AC50) was 29.1 µM [rising, single point]. Besides, the AC50 under setting [1] is 6.51 µM [falling, partial curve, poor fit].
Consider `CCOC(=O)CN1C(=O)C(=O)N(Cc2c(Cl)cccc2Cl)C1=O`, for which the cell number change was -25.2%. Further, the AC50 under setting [2] was 2.31 µM [falling, full curve, poor fit]. Also, the AC50 under setting [1] was 2.91 µM [falling, partial curve, poor fit].
`OCCC1CN(Cc2nc3ccccc3[nH]2)CCN1C1CCCC1` (stereo not given): the cell number change turned out to be 13.3%. Besides, the concentration at half-maximal activity (AC50) under setting [1] was 1.03 µM [falling, full curve].
For `O=C(Nc1ccc2c(c1)OCCO2)c1ccc(Br)cc1`, the cell number change came to 0.702%. Further, the AC50 under setting [1] is 0.461 µM [falling, full curve].
Turning to `COC(=O)N1C(=O)[C@](c2ccsc2)(C(C)C)N1C(=O)OC`, the cell number change turned out to be 12.6%. The concentration at half-maximal activity (AC50) under setting [1] is 0.58 µM [rising, single point].
Consider `Cc1cc(Br)ccc1OCCN1CC(C)OC(C)C1` (stereo not given), for which the cell number change was -12%. Moreover, the AC50 under setting [2] is 3.66 µM [falling, single point]. Besides, the half-maximal activity concentration (AC50) under setting [1] is 6.51 µM [falling, single point].
Turning to `COc1ccc(NC(=O)CS(=O)CC(=O)NC2CCCc3ccccc32)cc1` (stereo not given), the cell number change was -11.9%. The AC50 under setting [1] is 29.1 µM [rising, single point].
With `COc1ccc(-c2cc(C)no2)cc1S(=O)(=O)NCCCN(C)Cc1ccccc1`, the cell number change came to 6.92%. The AC50 under setting [1] was 14.6 µM [rising, partial curve].
